Results published in the supplement of paper PMC11732987, “Enantioselective OTUD7B fragment discovery through chemoproteomics screening and high-throughput optimisation” (Communications Chemistry, 2025).
The list shows a part of the results. The data scatter; read single values as rough.

Sequences of proteins named here, by UniProt entry; tags and fusion partners are left off. A change or cut given only in a name is not applied to a line headed by its entry. Residues count along the entry.
UniProt O14980: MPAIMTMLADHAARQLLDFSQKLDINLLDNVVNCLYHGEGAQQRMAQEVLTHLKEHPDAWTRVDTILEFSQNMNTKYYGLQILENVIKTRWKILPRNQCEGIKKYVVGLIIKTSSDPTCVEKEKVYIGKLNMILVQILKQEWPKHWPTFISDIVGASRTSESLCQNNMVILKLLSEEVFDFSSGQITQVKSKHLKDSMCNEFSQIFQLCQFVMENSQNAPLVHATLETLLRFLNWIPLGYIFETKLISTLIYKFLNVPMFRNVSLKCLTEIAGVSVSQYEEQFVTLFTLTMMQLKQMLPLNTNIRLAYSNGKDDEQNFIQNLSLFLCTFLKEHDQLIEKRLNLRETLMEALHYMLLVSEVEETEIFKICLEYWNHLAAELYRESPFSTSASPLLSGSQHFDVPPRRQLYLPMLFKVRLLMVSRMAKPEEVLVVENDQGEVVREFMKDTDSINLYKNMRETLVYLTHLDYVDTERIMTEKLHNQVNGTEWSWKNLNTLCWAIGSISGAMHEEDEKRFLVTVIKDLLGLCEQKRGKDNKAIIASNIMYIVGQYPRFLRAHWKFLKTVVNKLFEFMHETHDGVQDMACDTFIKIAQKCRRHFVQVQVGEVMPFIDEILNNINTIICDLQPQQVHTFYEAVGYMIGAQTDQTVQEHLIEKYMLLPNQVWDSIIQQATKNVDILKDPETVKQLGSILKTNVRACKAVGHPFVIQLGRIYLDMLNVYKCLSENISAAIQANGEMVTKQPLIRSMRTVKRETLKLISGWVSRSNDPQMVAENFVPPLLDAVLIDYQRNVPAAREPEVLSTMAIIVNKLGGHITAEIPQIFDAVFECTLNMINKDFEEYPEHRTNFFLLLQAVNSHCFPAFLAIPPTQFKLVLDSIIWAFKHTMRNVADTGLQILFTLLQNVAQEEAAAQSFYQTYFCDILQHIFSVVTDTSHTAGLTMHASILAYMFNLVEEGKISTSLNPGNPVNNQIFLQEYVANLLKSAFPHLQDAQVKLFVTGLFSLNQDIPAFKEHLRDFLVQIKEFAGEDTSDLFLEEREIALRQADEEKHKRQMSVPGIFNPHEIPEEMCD
UniProt O43379: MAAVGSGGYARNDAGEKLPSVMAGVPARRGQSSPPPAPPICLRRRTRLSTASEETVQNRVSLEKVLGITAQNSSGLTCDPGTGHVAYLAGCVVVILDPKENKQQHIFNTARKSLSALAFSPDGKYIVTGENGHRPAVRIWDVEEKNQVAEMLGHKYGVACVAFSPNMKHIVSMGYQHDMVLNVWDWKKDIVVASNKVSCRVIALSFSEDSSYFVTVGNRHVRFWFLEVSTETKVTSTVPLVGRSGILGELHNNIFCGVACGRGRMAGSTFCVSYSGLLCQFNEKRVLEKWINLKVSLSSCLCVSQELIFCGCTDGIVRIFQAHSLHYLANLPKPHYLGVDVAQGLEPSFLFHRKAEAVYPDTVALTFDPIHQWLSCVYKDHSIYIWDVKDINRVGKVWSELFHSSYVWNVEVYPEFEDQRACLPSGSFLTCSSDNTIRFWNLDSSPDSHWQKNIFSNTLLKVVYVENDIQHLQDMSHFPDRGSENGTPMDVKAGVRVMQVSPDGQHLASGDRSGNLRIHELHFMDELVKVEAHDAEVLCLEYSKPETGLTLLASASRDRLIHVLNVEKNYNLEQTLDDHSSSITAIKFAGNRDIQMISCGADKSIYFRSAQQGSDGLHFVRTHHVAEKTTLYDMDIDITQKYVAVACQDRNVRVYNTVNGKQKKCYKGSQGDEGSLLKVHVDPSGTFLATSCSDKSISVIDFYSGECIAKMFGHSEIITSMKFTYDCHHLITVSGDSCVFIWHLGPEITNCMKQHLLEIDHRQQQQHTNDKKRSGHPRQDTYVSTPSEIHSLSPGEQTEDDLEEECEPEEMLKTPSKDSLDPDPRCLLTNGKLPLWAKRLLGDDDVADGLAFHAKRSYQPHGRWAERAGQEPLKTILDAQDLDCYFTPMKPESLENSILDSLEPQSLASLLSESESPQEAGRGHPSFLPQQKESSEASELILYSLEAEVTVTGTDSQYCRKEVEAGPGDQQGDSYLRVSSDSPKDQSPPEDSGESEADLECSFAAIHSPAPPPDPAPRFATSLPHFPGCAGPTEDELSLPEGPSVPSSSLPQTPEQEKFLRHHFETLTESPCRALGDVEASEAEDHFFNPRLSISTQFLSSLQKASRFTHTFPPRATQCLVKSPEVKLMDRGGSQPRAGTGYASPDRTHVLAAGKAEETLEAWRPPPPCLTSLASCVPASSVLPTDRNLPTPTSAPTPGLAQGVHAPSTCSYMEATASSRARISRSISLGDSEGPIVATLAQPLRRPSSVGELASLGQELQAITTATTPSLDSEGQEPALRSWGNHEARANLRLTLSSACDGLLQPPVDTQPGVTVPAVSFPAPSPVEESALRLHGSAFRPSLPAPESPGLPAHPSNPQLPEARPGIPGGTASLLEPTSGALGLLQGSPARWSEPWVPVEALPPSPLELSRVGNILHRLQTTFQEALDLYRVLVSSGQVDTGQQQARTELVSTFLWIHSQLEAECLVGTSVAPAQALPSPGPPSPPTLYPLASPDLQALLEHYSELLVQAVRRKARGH
UniProt Q969T9: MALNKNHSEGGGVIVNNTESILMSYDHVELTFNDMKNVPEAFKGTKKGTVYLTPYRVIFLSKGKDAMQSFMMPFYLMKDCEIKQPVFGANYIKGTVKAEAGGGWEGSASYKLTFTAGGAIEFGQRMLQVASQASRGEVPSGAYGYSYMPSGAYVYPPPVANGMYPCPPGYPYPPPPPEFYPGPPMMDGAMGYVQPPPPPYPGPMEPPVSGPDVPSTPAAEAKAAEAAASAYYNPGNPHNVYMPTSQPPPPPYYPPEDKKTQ
UniProt O15062: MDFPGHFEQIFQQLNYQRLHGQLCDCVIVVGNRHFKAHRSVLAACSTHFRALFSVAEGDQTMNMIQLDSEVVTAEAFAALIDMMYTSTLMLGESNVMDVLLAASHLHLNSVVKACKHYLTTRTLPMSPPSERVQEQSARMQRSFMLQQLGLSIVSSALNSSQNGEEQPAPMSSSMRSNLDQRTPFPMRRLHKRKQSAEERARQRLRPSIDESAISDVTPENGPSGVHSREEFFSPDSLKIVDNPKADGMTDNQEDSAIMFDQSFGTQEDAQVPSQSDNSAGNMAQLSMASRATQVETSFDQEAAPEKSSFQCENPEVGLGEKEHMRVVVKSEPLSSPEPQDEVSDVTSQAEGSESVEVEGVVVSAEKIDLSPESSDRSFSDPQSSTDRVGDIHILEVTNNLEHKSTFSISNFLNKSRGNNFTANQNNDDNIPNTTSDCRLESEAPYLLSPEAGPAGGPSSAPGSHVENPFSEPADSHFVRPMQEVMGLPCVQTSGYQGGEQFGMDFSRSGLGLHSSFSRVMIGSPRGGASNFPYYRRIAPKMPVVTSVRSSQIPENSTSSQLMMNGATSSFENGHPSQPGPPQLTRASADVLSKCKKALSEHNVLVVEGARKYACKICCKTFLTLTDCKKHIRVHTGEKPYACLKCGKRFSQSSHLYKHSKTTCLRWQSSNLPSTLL
UniProt Q15007: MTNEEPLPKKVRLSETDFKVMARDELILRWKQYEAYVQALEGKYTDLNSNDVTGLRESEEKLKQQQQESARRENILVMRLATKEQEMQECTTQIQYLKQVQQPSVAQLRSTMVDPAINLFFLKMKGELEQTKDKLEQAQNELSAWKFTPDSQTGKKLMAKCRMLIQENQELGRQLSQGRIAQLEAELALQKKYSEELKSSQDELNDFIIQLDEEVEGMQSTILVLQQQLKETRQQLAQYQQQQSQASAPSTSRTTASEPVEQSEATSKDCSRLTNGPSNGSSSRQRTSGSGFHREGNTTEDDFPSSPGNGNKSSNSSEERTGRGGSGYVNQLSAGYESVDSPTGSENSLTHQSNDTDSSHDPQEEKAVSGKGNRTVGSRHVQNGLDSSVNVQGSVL
UniProt Q8N1B4, 101-125: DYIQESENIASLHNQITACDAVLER
UniProt Q9NRH1: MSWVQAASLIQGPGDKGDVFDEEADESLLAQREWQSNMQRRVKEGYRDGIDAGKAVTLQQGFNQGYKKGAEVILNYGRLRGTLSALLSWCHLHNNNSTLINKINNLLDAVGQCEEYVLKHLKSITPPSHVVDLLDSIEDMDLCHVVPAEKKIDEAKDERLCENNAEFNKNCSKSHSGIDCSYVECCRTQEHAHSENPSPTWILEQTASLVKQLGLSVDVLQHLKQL
UniProt Q9H6S0: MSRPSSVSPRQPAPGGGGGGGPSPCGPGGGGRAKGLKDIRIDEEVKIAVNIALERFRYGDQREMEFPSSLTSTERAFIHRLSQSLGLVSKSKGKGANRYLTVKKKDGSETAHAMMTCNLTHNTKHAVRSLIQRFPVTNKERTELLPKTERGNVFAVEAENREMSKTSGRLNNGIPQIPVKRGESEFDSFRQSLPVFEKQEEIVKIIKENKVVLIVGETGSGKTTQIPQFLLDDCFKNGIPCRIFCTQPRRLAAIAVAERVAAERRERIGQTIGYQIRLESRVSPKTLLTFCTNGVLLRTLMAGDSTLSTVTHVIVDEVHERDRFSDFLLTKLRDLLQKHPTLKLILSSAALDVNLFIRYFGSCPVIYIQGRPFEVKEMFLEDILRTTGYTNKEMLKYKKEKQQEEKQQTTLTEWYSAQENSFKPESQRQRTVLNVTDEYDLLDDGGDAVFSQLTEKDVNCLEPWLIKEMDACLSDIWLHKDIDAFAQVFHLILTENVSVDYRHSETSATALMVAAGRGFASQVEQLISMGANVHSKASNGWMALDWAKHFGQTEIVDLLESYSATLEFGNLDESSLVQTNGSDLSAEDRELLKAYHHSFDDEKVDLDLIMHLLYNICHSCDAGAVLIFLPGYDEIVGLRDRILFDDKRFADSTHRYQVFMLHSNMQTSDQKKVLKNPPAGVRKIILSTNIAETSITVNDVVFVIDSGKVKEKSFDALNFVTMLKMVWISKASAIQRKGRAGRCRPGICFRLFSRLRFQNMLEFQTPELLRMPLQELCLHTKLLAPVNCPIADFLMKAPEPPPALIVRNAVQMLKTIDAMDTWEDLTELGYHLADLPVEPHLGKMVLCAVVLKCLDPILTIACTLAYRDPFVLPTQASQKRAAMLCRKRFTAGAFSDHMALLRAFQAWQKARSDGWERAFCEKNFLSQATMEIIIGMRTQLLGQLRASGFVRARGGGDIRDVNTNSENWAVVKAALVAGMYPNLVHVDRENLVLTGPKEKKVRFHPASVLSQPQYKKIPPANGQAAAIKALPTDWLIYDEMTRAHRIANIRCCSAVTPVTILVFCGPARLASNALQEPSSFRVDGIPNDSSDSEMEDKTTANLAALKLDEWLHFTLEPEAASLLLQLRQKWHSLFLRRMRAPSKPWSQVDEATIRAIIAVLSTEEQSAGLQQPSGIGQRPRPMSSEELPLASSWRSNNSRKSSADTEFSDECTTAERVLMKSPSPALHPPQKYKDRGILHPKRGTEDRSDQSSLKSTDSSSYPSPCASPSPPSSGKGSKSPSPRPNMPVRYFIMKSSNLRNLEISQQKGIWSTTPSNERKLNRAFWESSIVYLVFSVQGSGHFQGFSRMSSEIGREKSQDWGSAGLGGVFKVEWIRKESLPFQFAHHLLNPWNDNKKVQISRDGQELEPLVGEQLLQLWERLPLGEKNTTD
UniProt Q8IWR0: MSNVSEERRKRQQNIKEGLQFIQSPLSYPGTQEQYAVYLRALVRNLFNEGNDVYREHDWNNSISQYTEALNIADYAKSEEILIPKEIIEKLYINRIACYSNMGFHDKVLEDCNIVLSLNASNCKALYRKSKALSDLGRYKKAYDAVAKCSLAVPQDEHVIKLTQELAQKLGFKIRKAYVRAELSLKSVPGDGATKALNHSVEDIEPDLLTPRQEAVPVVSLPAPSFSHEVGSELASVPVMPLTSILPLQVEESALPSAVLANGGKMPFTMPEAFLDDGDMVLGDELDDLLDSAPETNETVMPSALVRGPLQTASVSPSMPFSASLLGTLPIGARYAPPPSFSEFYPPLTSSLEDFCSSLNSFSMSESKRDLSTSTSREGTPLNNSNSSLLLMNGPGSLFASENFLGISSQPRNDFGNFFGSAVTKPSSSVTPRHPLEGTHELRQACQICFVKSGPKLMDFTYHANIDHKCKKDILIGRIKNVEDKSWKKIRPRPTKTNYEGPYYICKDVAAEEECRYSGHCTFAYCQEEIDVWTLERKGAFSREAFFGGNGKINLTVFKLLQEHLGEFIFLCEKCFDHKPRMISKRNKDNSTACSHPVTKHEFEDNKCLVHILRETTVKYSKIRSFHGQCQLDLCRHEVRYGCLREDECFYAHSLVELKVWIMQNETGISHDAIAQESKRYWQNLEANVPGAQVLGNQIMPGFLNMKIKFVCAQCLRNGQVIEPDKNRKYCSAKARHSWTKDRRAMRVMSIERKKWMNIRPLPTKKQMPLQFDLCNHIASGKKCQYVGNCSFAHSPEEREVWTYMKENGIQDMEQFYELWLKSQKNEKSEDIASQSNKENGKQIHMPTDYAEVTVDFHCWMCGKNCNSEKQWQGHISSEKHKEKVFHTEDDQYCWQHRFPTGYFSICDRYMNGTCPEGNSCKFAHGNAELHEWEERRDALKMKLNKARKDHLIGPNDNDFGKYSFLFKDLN
UniProt Q96JC1, 218-238: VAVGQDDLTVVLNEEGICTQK

Compound: ClCC(=O)N[C@@H]1CCCc2ccccc12
Experiment: log2 mean competition ratio of IA-DTB cysteine labelling (DMSO/compound) (log2 ratio); higher = stronger cysteine engagement by compound
Settings: 50 µM; treatment time: 4 h; cell line lysate: HEK293T
Procedure: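 IA-DTB competitive cysteine chemoproteomics in HEK293T RIPA lysate. Lysates were treated with compound 29 or 30 at 50 or 200 µM for 4 h, then IA-DTB (500 µM, 1 h), trypsin-digested, NeutrAvidin-enriched and analysed by diaPASEF. Competition ratio = intensity DMSO / intensity compound (n=4 treated, n=64 DMSO); binding: mean log2 CR ≥ 1 and p ≤ 0.05 plus QC filters. Target is the cysteine site.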

Target	log2 mean competition ratio
XPO1 C723 (UniProt O14980)	-0.0418
VPS53 C311 (UniProt Q5VIR6)	0.162
WDR62 C707 (UniProt O43379)	-0.0228
WBP2 C80 (UniProt Q969T9)	0.287
ZBTB21 C378 (UniProt Q9ULJ3)	-0.279
ZBTB5 C312 (UniProt O15062)	-0.0846
WWP2 C186 (UniProt O00308)	0.0109
ZADH2 C218 (UniProt Q8N4Q0)	0.0632
WTAP C90 (UniProt Q15007)	-0.143
WDCP C574 (UniProt Q9H6R7)	0.0796
VPS52 C119 (UniProt Q8N1B4)	0.29
VPS8 C974 (UniProt Q8N3P4)	0.574
VRK2 C373 (UniProt Q86Y07)	0.0681
YAE1 C161 (UniProt Q9NRH1)	-0.13
YTHDC2 C1211 (UniProt Q9H6S0)	-0.263
ZC3H7A C575 (UniProt Q8IWR0)	0.421
WDR6 C653 (UniProt Q9NNW5)	0.162
WDR62 C1072 (UniProt O43379)	0.155
VPS35L C588 (UniProt Q7Z3J2)	0.105
VPS39 C235 (UniProt Q96JC1)	-0.317

Same assay, conditions: 200 µM; treatment time: 4 h; cell line lysate: HEK293T

Target	log2 mean competition ratio
XPO1 C723 (UniProt O14980)	-0.299
VPS53 C311 (UniProt Q5VIR6)	0.0735
WDR62 C707 (UniProt O43379)	0.0743
WBP2 C80 (UniProt Q969T9)	-0.176
ZBTB21 C378 (UniProt Q9ULJ3)	-0.133
ZBTB5 C312 (UniProt O15062)	0.243
WWP2 C186 (UniProt O00308)	0.164
ZADH2 C218 (UniProt Q8N4Q0)	0.152
WTAP C90 (UniProt Q15007)	-0.344
WDCP C574 (UniProt Q9H6R7)	-0.0226
VPS52 C119 (UniProt Q8N1B4)	-0.0705
VPS8 C974 (UniProt Q8N3P4)	1.12
VRK2 C373 (UniProt Q86Y07)	0.0963
YAE1 C161 (UniProt Q9NRH1)	0.182
YTHDC2 C1211 (UniProt Q9H6S0)	0.592
ZC3H7A C575 (UniProt Q8IWR0)	-0.184
WDR6 C653 (UniProt Q9NNW5)	-0.492
WDR62 C1072 (UniProt O43379)	0.308
VPS35L C588 (UniProt Q7Z3J2)	-0.336
VPS39 C235 (UniProt Q96JC1)	0.217
